Laboratory results as given in PubChem BioAssay AID493014 (National Center for Advancing Translational Sciences (NCATS), 2011).
Some of the results follow. These are further read-outs of the screen, such as a control signal, another cell line or another target. No call is given for them. The list favours compounds with an active or inconclusive main result. Potencies come from curve fits of mixed quality, noted in brackets.

Assay: qHTS Assay to Find Inhibitors of Chronic Active B-Cell Receptor Signaling
Conditions: ABC-DLBCL IkBa-CBG/CBR reporter, luminescence ratio (green luciferase fused to IkBa over red control in TMD8 lymphoma cells), 4 h
Procedure, shortened: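 Compounds up to 46 uM were incubated four hours with TMD8 cells whose green CBG68 luciferase is fused to IkappaBalpha; red CBR luminescence normalised the signal, and concentration-effect curves were fitted to fusion, red and ratio data.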

[1] = measured here: CBR red luminescence, cell number
[2] = measured here: IkBa-CBG green luminescence

Structure (SMILES) | AC50 [1] | AC50 [2]
CC(=O)N(C1=C(Cl)C(=O)c2ccccc2C1=O)C1CCCCC1 | 22.4 µM [falling, single point] | 35.5 µM [rising, single point]
CCOC(=O)c1c(NC(=O)c2cc3nc(-c4ccc(OC)cc4)cc(C(F)(F)F)n3n2)sc(C)c1C | 0.112 µM [falling, full curve, poor fit] | –
CS(=O)(=O)N1CCN(C(=O)c2c(F)cccc2F)CC1 | 5.8 µM [rising, full curve, poor fit] | –
COc1ccccc1C1=NOC(COc2ccc3c(C)cc(=O)oc3c2)C1 (centres undefined) | 2.82 µM [rising, full curve] | 7.08 µM [falling, partial curve]
COc1ccc(CN2CCNC(=O)C2CC(=O)NCCc2nc(C)c(C)s2)cc1C (centres undefined) | 10 µM [rising, partial curve, poor fit] | –
COc1ccc(CCNC(=O)Cn2cc(C(F)(F)F)cc(Cl)c2=O)cc1OC | 4.11 µM [rising, full curve, poor fit] | –
Cc1ccc(C(=O)N/N=C\c2ccc(OC(=O)c3cccs3)cc2)cn1 | 29.1 µM [rising, single point] | –
CCOC(=O)Cc1csc(NC(=O)Cc2cccs2)n1 | 11.2 µM [falling, partial curve, poor fit] | –
COc1ccc(C)cc1S(=O)(=O)N1CCN(c2cccc(C(F)(F)F)c2)CC1 | 7.31 µM [rising, partial curve, poor fit] | –
Cc1cc(/C=C2/SC(=O)N(CC(=O)N3CCCC3)C2=O)c(C)n1C | 1.58 µM [rising, full curve, poor fit] | –
COc1cc(/C=N/NC(=O)c2ccccn2)ccc1OC(=O)c1cccs1 | 35.5 µM [falling, single point] | –
O=C(CN1C(=O)c2ccccc2C1=O)OCC(=O)c1ccc(F)cc1 | 3.26 µM [rising, full curve] | –
O=C(Cn1cnc2c(nnn2Cc2ccccc2F)c1=O)OCc1ccccc1 | 35.5 µM [rising, single point] | –
Cc1nn(CCc2n[nH]c(=S)n2-c2ccc(F)c(Cl)c2)c(C)c1[N+](=O)[O-] | 2.82 µM [rising, full curve, poor fit] | –
O=c1[nH]n(-c2ccccc2Cl)c(=O)c2ccccc12 | 5.62 µM [falling, partial curve, poor fit] | –
CC(Sc1nc2ncc(Cl)cc2[nH]1)C(=O)NC1(C#N)CCCCC1 (centres undefined) | 29.1 µM [falling, partial curve, poor fit] | –
CCN1CCN(Cc2ccc(NC(=O)c3cc(NC(=O)C(=O)c4c[nH]c5ccccc45)cc(OC)c3)cc2C(F)(F)F)CC1 | 12.6 µM [falling, partial curve, poor fit] | –
CN(C)S(=O)(=O)c1cccc(COc2ccccc2C(=O)Nc2ccccc2)c1 | 35.5 µM [falling, single point] | –
Cc1nc(Nc2ccc(F)cc2)[nH]c(=O)c1CCC(C)C | 1.3 µM [rising, full curve] | –
COc1ccc(C2N(c3ccc(OC)cc3)C(=O)C3CCCN32)cc1 (centres undefined) | 2.91 µM [falling, single point] | –
CSc1ncc(C(=O)Nc2ccc(Br)cn2)c(C)n1 | 35.5 µM [falling, single point] | –

Structure (SMILES) | AC50 [1] | AC50 [2]
CC(=O)Nc1ccc(/C=C/C(=O)c2ccc3c(c2)OCCO3)cc1 | 11.2 µM [falling, single point] | –
Cc1ccc2nc(NCCCO)nc(-c3ccccc3)c2c1 | 0.651 µM [falling, full curve, poor fit] | –
O=C1C2C3C=CC(CC3)C2C(=O)N1c1cccc(Br)c1 (centres undefined) | 35.5 µM [falling, partial curve, poor fit] | –
CC(=O)Nc1ccc(NC(=O)c2ccc3c(c2)C(=O)N(c2ccccc2C)C3=O)cc1 | 0.0891 µM [rising, full curve, poor fit] | –
Cc1cc(C)nc(NC(=NCCc2c[nH]c3ccccc23)NC(=O)Nc2ccccc2)n1 | 29.1 µM [falling, single point] | –
CCc1ccccc1NC(=O)c1cc(-c2cccc(O)c2)on1 | 22.4 µM [falling, partial curve, poor fit] | –
O=C1NC2(CCCC2)N=C1c1ccc(F)cc1 | 25.9 µM [rising, single point] | –
Cc1cccc(NC(=O)c2ccc(OC3CSC3)cc2)c1 | 23.1 µM [falling, single point] | –
O=C(Nc1cccn(Cc2c(Cl)cccc2Cl)c1=O)c1ccccc1Cl | 0.501 µM [rising, full curve, poor fit] | –
COc1cc2c(cc1OC)CN(Cc1nc3ccsc3c(=O)[nH]1)CC2 | 18.4 µM [rising, single point] | –
N#CC1=C(S)N(c2ccccc2)C(c2ccc(-c3ccccc3Cl)o2)NC1=O (centres undefined) | – | 18.4 µM [falling, single point]
COc1ccccc1NC(=O)Nc1ccc2c(c1)nnn2C | 2.31 µM [falling, partial curve] | –
NC(=O)C1CCN(c2nc(-c3ccccc3N)cs2)CC1 | 0.651 µM [rising, full curve] | –
O=C(NC(=S)Nc1nc2ccccc2s1)c1ccco1 | 3.66 µM [falling, full curve] | –
Cc1ccc(C)c(Nc2cc(C)nc(-c3ccccc3O)n2)c1 | 8.91 µM [falling, partial curve] | –
CC(C)c1ccc(/C=N/N2CCN(c3ccccn3)CC2)cc1 | 0.126 µM [rising, full curve, poor fit] | –
CCCCNC(=S)NNC(=O)CCn1nc(C)c(Br)c1C | 15.8 µM [rising, single point] | 10 µM [falling, partial curve]
O=C(c1ccc(Br)o1)N1CCc2ccccc21 | 2.82 µM [rising, single point] | –
CC#CCN1c2ccccc2[C@]23C[C@@H](C(=O)OC)N(C(=O)OCC)C2=NC(C(=O)OC)=C(C(=O)OC)[C@H]13 | 6.31 µM [rising, partial curve, poor fit] | –
O=C(NCc1cccs1)C(=O)NCC1OCCCN1S(=O)(=O)c1ccccc1 (centres undefined) | 4.61 µM [rising, partial curve] | –
O=C(NCCc1ccccn1)c1ccc(COc2ccccc2)o1 | 0.58 µM [falling, single point] | –

Structure (SMILES) | AC50 [1] | AC50 [2]
O=C(NCc1ccccc1)C(=O)Nc1nc(-c2ccccc2)cs1 | 11.2 µM [rising, partial curve, poor fit] | –
O=C(N/N=C/c1cn(-c2ccccc2)nc1-c1cccs1)c1ccc(Cl)cc1 | 1.84 µM [rising, partial curve, poor fit] | –
COc1ccc(C(=O)Nc2nccs2)cc1OC | 25.9 µM [falling, partial curve, poor fit] | –
O=Cc1ccc(-c2nc3ccccc3s2)o1 | 1.26 µM [rising, partial curve] | 6.31 µM [rising, partial curve, poor fit]
CC(C)(C)C(=O)CN1C(=O)C2(OCCO2)c2ccccc21 | 3.16 µM [rising, full curve, poor fit] | –
C/C(=N/NC(=O)CNC(=O)c1ccccn1)c1ccccc1 | 13 µM [rising, partial curve, poor fit] | –
Cc1ccc(C2NNC(=O)C2NC(=O)c2ccccc2)cc1 (centres undefined) | 25.9 µM [falling, partial curve] | –
CCOC(=O)c1ccc(NC(=O)CCS(=O)(=O)Cc2ccccc2)cc1 | 0.708 µM [rising, partial curve, poor fit] | –
Nc1c(Cl)cc(C2=NCCn3c2c2ccc(C(F)(F)F)cc2[n+]3[O-])cc1Cl | 25.9 µM [falling, single point] | –
c1ccc2cc3[nH]c(CN4CCOCC4)nc3cc2c1 | 29.1 µM [falling, single point] | –
O=C1CSC(=O)N1CC(O)COc1ccc(Cl)cc1 (centres undefined) | 12.6 µM [rising, single point] | –
Cn1c(=O)c2[nH]c(COc3ccc(C(C)(C)C)cc3)nc2n(C)c1=O | 6.31 µM [falling, single point] | –
CC(/C=N/NC(=O)c1ccc2nc(C)[nH]c2c1)=C\c1ccccc1 | 11.6 µM [falling, partial curve, poor fit] | –
Cc1[nH]c2ccccc2c1/C=N/NC(=O)c1cccs1 | 17.8 µM [falling, partial curve, poor fit] | –
CCOc1ccccc1N1CCN(C(=O)c2c(-c3ccccc3Cl)noc2C)CC1 | – | 4.11 µM [falling, partial curve, poor fit]
CCCCn1c2c(c3ccccc31)CCc1nonc1-2 | 29.1 µM [rising, single point] | –
COc1cccc2sc(Nc3nnc(-c4ccccc4Cl)o3)nc12 | 7.31 µM [falling, partial curve] | 20.6 µM [falling, partial curve, poor fit]
CCSc1ccccc1-c1nc(-c2ccncc2)no1 | 5.62 µM [rising, single point] | –
CCOc1ccc(S(=O)(=O)Nc2cnc3ccccc3c2)cc1 | 3.16 µM [falling, single point] | –
Cc1cccc(/C(N)=N/OC(=O)CCC2CCCCC2)c1 | 8.2 µM [rising, partial curve] | –
C(=N\c1ncnc2sccc12)/NOCc1ccccc1 | 11.6 µM [falling, partial curve, poor fit] | 16.4 µM [rising, partial curve, poor fit]

Of the compounds above, these contain a cyano group.
Structure (SMILES) | AC50 [1] | AC50 [2]
CC(Sc1nc2ncc(Cl)cc2[nH]1)C(=O)NC1(C#N)CCCCC1 (centres undefined) | 29.1 µM [falling, partial curve, poor fit] | –
N#CC1=C(S)N(c2ccccc2)C(c2ccc(-c3ccccc3Cl)o2)NC1=O (centres undefined) | – | 18.4 µM [falling, single point]
